Test results reported in the supplement of paper PMC11006884.
The list shows a part of the results, in another mix than the full data.

Protein sequences, listed by entry. Tags and fused reporters are not part of them. Lines headed by an entry give the natural chain unless they say otherwise; changes in a name come on top.
UniProt Q15365, whole entry, looked up: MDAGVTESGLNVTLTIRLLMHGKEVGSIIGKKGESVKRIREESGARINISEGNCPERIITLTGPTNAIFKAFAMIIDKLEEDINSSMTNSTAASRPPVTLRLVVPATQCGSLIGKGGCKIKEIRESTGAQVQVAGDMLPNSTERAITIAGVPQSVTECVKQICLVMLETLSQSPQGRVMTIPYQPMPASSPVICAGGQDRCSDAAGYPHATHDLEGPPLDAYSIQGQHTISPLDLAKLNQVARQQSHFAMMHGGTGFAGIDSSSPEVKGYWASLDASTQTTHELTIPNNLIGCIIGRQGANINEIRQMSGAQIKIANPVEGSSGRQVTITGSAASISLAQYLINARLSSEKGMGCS
UniProt Q16637, whole entry: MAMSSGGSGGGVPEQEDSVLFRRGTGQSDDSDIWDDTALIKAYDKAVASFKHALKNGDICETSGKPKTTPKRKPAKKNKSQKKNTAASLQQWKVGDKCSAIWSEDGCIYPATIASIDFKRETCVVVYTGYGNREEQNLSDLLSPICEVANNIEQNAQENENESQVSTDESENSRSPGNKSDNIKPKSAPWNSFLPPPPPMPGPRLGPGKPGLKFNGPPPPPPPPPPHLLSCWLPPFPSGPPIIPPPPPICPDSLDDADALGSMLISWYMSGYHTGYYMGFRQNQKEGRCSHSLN
UniProt Q29RF7: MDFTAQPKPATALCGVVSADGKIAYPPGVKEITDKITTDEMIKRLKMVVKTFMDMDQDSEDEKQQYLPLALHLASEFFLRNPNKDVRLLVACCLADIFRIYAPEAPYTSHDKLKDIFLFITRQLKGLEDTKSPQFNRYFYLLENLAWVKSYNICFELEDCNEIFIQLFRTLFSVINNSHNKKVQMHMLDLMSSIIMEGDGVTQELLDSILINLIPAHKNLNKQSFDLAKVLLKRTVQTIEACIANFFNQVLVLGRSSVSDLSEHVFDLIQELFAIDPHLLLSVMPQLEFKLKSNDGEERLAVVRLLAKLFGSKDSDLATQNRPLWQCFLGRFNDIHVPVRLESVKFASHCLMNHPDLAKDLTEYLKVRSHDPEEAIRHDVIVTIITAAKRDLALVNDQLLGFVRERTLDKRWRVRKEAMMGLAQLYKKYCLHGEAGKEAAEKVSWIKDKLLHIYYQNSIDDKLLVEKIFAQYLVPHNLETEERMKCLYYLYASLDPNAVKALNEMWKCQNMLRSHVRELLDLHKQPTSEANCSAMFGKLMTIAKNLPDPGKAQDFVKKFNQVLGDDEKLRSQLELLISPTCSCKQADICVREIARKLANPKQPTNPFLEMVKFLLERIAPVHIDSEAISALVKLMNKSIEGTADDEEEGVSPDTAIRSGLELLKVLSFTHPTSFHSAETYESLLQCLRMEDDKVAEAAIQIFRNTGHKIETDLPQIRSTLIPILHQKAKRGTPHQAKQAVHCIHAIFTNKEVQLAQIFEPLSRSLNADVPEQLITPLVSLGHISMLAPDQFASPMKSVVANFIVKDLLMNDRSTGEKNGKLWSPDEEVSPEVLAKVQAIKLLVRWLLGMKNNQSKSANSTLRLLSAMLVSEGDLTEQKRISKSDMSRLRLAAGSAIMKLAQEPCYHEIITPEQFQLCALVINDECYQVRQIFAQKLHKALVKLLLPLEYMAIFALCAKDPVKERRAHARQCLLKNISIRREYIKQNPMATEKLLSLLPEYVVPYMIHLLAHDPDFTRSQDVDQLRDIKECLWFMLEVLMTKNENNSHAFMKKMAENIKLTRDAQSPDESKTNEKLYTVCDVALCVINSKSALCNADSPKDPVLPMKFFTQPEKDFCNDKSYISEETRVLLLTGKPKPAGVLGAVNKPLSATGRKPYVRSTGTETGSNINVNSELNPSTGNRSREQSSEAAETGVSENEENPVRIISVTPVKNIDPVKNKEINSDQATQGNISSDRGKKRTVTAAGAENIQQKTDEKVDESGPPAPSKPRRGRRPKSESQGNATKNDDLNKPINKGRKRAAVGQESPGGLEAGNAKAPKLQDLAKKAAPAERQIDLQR
UniProt Q32MZ4: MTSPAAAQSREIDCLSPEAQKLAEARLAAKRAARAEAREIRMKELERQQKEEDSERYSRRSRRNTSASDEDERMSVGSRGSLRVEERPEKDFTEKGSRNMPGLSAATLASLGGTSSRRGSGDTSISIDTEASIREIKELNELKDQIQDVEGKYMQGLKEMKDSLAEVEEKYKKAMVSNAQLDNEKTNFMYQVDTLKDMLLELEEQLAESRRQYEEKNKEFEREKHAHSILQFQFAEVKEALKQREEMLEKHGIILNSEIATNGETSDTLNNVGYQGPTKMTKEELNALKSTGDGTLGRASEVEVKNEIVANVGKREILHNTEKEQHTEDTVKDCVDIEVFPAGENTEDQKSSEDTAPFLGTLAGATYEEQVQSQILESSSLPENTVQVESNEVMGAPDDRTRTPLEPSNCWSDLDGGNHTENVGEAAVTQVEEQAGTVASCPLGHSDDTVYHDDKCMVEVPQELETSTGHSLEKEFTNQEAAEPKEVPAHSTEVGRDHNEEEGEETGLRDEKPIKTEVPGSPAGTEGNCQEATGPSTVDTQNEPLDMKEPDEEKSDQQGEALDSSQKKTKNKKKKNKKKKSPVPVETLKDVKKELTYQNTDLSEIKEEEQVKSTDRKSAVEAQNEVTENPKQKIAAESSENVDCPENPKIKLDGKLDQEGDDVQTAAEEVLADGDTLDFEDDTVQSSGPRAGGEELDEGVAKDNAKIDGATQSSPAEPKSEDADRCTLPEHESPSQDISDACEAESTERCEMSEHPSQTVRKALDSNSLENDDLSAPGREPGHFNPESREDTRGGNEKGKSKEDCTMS
UniProt Q4KMP7: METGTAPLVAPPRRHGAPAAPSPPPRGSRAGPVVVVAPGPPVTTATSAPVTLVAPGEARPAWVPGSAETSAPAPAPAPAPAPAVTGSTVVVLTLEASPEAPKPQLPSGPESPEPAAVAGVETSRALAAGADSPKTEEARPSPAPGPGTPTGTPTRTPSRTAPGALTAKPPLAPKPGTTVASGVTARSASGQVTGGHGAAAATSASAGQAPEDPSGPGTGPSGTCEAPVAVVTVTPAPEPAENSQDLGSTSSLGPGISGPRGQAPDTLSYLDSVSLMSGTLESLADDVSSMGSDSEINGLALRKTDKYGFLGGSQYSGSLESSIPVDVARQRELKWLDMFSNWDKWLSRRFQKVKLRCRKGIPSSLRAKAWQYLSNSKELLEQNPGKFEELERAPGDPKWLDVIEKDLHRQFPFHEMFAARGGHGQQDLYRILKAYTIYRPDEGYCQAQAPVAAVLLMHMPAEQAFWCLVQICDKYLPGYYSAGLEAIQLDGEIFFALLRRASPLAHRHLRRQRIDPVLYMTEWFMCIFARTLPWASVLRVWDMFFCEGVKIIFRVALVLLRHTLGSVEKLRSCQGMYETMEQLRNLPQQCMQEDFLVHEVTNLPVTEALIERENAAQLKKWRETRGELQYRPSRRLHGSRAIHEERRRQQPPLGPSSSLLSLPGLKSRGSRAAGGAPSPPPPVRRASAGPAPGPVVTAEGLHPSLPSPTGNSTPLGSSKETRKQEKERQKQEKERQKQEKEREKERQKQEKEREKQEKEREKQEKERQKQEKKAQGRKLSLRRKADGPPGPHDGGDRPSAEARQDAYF
UniProt Q53R41: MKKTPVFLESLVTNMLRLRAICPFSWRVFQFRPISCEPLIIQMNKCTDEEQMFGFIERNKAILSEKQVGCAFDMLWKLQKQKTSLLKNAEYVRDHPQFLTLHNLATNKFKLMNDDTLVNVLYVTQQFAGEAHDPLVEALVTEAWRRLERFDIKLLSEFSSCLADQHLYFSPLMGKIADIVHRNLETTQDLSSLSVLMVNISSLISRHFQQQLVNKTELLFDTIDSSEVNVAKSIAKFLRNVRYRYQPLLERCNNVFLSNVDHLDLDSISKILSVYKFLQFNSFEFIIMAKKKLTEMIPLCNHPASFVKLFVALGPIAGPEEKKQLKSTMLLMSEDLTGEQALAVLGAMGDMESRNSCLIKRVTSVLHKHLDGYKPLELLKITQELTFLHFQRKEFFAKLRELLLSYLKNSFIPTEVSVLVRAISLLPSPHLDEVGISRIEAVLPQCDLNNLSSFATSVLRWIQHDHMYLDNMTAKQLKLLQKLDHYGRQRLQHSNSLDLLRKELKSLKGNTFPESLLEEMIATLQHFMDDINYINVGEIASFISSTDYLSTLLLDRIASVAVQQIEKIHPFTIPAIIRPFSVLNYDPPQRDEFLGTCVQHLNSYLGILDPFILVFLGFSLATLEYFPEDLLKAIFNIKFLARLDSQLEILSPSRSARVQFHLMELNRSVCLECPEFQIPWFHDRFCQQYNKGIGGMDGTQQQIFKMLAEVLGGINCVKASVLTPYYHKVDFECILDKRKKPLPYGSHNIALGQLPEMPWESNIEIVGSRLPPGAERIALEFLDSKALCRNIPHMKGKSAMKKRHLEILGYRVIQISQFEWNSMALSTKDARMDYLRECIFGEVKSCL
UniProt Q16512: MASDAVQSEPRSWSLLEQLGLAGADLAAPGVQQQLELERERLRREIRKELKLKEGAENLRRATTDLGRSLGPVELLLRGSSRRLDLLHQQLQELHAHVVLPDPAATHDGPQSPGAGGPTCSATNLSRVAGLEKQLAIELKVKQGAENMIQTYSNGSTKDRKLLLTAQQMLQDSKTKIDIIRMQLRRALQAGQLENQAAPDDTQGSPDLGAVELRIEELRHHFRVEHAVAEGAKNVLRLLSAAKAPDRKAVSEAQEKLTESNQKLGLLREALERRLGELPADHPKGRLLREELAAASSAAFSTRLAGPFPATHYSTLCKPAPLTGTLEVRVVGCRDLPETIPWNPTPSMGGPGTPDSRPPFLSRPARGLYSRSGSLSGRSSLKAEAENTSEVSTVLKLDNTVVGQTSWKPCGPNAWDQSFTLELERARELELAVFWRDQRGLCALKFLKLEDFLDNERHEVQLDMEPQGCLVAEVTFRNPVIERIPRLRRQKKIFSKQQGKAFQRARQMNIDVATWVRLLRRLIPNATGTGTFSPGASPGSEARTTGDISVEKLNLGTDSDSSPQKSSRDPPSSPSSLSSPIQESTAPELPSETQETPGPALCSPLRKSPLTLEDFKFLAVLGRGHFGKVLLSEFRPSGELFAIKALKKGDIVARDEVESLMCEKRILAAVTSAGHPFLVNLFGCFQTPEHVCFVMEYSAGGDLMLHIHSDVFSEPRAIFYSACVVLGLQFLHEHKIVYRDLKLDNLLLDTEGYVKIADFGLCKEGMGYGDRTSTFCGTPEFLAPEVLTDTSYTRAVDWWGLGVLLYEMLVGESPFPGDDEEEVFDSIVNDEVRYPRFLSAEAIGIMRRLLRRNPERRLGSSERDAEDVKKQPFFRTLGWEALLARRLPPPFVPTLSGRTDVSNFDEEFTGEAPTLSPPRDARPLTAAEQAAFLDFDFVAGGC
UniProt Q15185: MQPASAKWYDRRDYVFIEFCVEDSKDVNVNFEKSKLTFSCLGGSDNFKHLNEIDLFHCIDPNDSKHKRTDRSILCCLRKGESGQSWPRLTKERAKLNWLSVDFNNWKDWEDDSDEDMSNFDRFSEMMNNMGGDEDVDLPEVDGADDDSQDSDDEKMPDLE
UniProt Q15029: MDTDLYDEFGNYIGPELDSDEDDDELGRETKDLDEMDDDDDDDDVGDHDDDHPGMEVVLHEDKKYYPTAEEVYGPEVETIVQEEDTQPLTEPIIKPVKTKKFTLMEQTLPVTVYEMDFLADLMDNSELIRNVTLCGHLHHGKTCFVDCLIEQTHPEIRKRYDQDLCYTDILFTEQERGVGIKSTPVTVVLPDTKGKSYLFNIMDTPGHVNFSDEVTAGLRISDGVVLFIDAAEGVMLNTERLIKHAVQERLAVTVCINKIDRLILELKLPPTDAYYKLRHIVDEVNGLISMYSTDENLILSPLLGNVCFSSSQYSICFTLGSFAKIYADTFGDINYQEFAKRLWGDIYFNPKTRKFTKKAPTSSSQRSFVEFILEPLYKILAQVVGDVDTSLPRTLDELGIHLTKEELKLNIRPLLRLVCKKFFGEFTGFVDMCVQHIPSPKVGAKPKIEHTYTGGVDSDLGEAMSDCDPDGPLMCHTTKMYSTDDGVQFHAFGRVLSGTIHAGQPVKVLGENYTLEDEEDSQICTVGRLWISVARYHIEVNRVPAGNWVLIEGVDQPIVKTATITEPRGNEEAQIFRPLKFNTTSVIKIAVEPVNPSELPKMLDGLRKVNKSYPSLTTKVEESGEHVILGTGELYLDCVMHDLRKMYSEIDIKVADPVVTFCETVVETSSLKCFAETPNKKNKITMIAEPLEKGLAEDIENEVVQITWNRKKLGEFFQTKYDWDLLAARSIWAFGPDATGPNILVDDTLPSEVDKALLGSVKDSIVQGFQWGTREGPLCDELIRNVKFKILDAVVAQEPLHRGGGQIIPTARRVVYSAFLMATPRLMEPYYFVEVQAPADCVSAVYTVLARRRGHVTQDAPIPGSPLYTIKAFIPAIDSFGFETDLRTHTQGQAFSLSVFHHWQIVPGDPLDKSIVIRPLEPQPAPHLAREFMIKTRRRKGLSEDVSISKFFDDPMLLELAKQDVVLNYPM

What follows are targets tested with COC(=O)C#Cc1ccccc1 [methyl 3-phenylpropiolate] (assay: log2 ratio of iodoacetamide-alkyne labeling of the cysteine site, DMSO over compound (competition); higher = stronger covalent engagement of the cysteine by the compound, active = 1 or more). Settings: 500 µM; treatment time 1 h; system: HEK293T cell lysate.
Method in brief: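 HEK293T lysate (2 mg/mL) was incubated with electrophile (500 µM) or vehicle for 1 h at ambient temperature and then with iodoacetamide alkyne for 1 h. Labelled proteins were clicked to sCIP-TMT reagents, pooled, digested, enriched on streptavidin and measured by Orbitrap Eclipse LC-MS/MS with FAIMS, with FragPipe quantification. The per-cysteine log2 competition ratio is mean control-channel reporter intensity over mean compound-channel reporter intensity. Across three replicates with duplicate channels, cysteines quantified in only one replicate were excluded.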

log2 ratio of iodoacetamide-alkyne labeling, active:
SAFB C404 (UniProt Q15424) 1.14
DLGAP5 C129 (UniProt Q15398) 1.38
UniProt Q15365_C194 1.08
SUZ12 C325 (UniProt Q15022) 1.07

log2 ratio of iodoacetamide-alkyne labeling, inactive:
SEC23A C180 (UniProt Q15436) 0.0997
ANO6 C105 (UniProt Q4KMQ2) 0.0829
CEP55 C359 (UniProt Q53EZ4) 0.569
PPA1 C113 (UniProt Q15181) 0.0789
UniProt Q16637_C60 0.597
UniProt Q15365_C158 0.366
ANKRD39 C168 (UniProt Q53RE8) 0.164
PDS5A C581 (UniProt Q29RF7) 0.744
PDS5A C1093 (UniProt Q29RF7) 0.237
LRRC14 C15 (UniProt Q15048) 0.615
TNIP1 C212 (UniProt Q15025) -0.0676
PCM1 C876 (UniProt Q15154) 0.408
CCDC6 C27 (UniProt Q16204) 0.255
LRRFIP1 C805 (UniProt Q32MZ4) 0.434
TBC1D10B C573 (UniProt Q4KMP7) 0.531
LRRFIP1 C644 (UniProt Q32MZ4) 0.348
PDS5A C583 (UniProt Q29RF7) 0.744
UniProt Q15365_C355 0.6
SAFB C448 (UniProt Q15424) 0.229
HNRNPUL2 C308 (UniProt Q1KMD3) 0.826
TBCE C141 (UniProt Q15813) 0.344
FASTKD1 C46 (UniProt Q53R41) 0.53
UniProt Q15475_C130 0.571
UniProt Q16512_C317 0.267
SF3B4 C168 (UniProt Q15427) -0.0894
PDS5A C92 (UniProt Q29RF7) -0.0722
PDS5A C1084 (UniProt Q29RF7) 0.189
LLGL1 C1059 (UniProt Q15334) 0.241
PTGES3 C40 (UniProt Q15185) -0.00848
PDK2 C45 (UniProt Q15119) 0.457
CPSF6 C159 (UniProt Q16630) 0.396
EFTUD2 C166 (UniProt Q15029) 0.158
ETFDH C592 (UniProt Q16134) 0.434

Reprinted from the results shown (eleven entries):
log2 ratio of iodoacetamide-alkyne labeling, inactive:
PDS5A C581 (UniProt Q29RF7) 0.744
PDS5A C1093 (UniProt Q29RF7) 0.237
LRRC14 C15 (UniProt Q15048) 0.615
TNIP1 C212 (UniProt Q15025) -0.0676
PCM1 C876 (UniProt Q15154) 0.408
CCDC6 C27 (UniProt Q16204) 0.255
LRRFIP1 C805 (UniProt Q32MZ4) 0.434
TBC1D10B C573 (UniProt Q4KMP7) 0.531
LRRFIP1 C644 (UniProt Q32MZ4) 0.348
PDS5A C583 (UniProt Q29RF7) 0.744
UniProt Q15365_C355 0.6
